Results: patent US20070093442A1
Results are given in words; binding and its absence hold for the method and conditions named. Some entries that bind do so weakly or less than the wild type. Where a sequence is shown, tags or fusion partners need not be part of it.

Legend:
[1] = biological target: myc-tagged Twist (mouse) (UniProt P26687); assay: EMSA on the MCK E box probe with in vitro-translated proteins
[2] = biological target: myc-tagged Twist (mouse) (UniProt P26687); assay: non-reducing SDS-PAGE and Western blot of transfected 293 cells (FIG. 1a)
[3] = biological target: myc-tagged Twist (mouse) (UniProt P26687); assay: non-reducing SDS-PAGE and Western blot of transfected 293 cells (FIG. 8)
[4] = biological target: myc-tagged Twist (mouse) (UniProt P26687); assay: non-reducing SDS-PAGE and Western blot of transfected 293T HEK cell extracts

Measured: binding

B1: myc-tagged Twist (protein, mouse, UniProt P26687 1-206, looked up, not shown: small tags and cut ends)
chain: MMQDVSSSPVSPADDSLSNSEEEPDRQQPASGKRGARKRRSSRRSAGGSAGPGGATGGGIGGGDEPGSPAQGKRGKKSAGGGGGGGAGGGGGGGGGSSSGGGSPQSYEELQTQRVMANVRERQRTQSLNEAFAALRKIIPTLPSDKLSKIQTLKLAARYIDFLYQVLQSDELDSKMASCSYVAHERLSYAFSVWRMEGAWSMSASH
binds: all assays above
